This passage reports binding results from patent US20110112012A1 (UNIVERSITY OF GEORGIA STUDIES RESEARCH FOUNDATION, published 2011).

Results are given in words; binding and its absence hold for the method and conditions named. Some binding calls cover weakened binding; strength is not graded here.

The test deals with T1, Cry4Ba toxin (Cry4BRA mutant, R203 replaced by A) of Bacillus thuringiensis israelensis (Bacillus thuringiensis israelensis) (UniProt P05519).
T1 sequence: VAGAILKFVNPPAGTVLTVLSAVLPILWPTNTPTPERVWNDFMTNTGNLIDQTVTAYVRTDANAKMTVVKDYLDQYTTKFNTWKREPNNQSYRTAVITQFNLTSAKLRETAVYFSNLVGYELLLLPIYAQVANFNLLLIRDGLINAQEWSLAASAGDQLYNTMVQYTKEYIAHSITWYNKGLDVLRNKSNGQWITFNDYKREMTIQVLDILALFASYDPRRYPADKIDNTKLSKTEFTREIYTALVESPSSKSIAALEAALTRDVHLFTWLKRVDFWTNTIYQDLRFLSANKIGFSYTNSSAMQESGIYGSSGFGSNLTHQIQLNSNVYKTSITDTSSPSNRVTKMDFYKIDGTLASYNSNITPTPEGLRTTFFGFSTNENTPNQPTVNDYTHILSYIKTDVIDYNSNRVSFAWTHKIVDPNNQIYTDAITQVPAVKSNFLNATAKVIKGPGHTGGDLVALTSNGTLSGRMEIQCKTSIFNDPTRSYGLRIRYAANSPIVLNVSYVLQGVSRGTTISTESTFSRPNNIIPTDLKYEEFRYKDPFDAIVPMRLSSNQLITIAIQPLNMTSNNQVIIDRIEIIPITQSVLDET
The experiment in a line: microplate ELISA, Cry4Ba coated, biotinylated fragment. A general note: ELISA stands for enzyme-linked immunosorbent assay.

B1: CR11-MPED peptide of AgCad1 (amino acids 1358G to 1569A), expressed in E. coli (peptide)
chain: GITTNDRVPKALFRVYAEDPDEDEIIRYELVNGTAVGENLQTDGLPFRLHPDSGELTLTSKVQPNQNGYYQLTLIAFDRDDTHNDTVPAKVYIVSESNRVTFVFLNSVEEIDQPDVRKFLAQELTGAYEMECNIDDIDQTTASDGRQAGGSSSALTDVRTHFIQDNQAVEASRIQQRSSNRTFVTVLKTTLRTRGLSLQDVPPLATEALTEA
notes: Biotinylated with sulfo-NHS-PC-biotin for the microplate assay; also called AgCad CR11-MPED; AgCad-CR11-MPED
Consider B1, for which the binding entry is listed as “binds”.

B2: CR9-11 fragment of AgCad1, expressed in E. coli (peptide)
chain: GSPLPKFEAIDDDGGIYGDVTFSLTSTNDGEQDHEVFRVDKVDNKTGLLVLENSLAVQPFPKNYSITVIARDGGDRQSEAAIHVVFINMTGEPAFLEPTFDTDFTENEEGRDERRQLPFAEDPKNAGLPPGAETNVYYFIDKTYGNASHLFQLDRVSNVLQLAQLLDREEIPTPEIRIVATNNENSPPDTVLESSPSLLVVRIKVNDVNDNPPVFQQRLYAAGITTNDRVPKALFRVYAEDPDEDEIIRYELVNGTAVGENLQTDGLPFRLHPDSGELTLTSKVQPNQNGYYQLTLIAFDRDDTHNDTVPAKVYIVSESNRVTFVF
notes: Biotinylated for the microplate assay; also called AgCad CR9-11; AgCad-CR9-11
As for B2, the binding result is given as “binds”.
